Reference: PubChem BioAssay AID743121 (NCATS, 2013)

Purpose: 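Genes whose silencing strengthens cell killing by camptothecin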 (primary screen)
System: MDA-MB-231 cells, a human breast cancer line
Reagent: single siRNA against human genes, 20 nM siRNA (0.8 pmol per well)
Time to read-out: 120 h (drug added 48 h after transfection, read 72 h later)
Challenge: camptothecin 20 nM (about EC30) for 72 h; vehicle 0.1% DMSO in parallel plates
Read-out: 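Cell viability by ATP luminescence (CellTiter-Glo) as % of non-targeting siRNA wells, and the log2 ratio of viability without drug over viability with camptothecin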
Reading the numbers: log2 vehicle/camptothecin viability: higher = stronger sensitisation to camptothecin; viability with camptothecin and viability without drug: higher = more viable cells
Call rule: 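Each gene scored by redundant siRNA activity (RSA) over its individual siRNA ratios; a gene is called active at p < 0.001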
This is one part, drawn at random, of about 26,000 deposited reagents. 167 of all reagents (0.63%) count as active. 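Calls are per gene from RSA p-values that are not deposited; an individual active-marked siRNA can sensitise only weakly.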 Reagents against one gene are numbered here. Reagent sequences are not shown.

| gene symbol | siRNA no. | log2 vehicle/camptothecin viability | viability with camptothecin (% of control) | viability without drug (% of control) | call |
| --- | --- | --- | --- | --- | --- |
| HSPD1 (heat shock protein family D (Hsp60) member 1) | 1 | -0.455 | 113 | 82.3 | inactive |
| HSPD1 (heat shock protein family D (Hsp60) member 1) | 2 | -0.207 | 65.5 | 56.7 | inactive |
| HSPD1 (heat shock protein family D (Hsp60) member 1) | 3 | -0.218 | 76.5 | 65.8 | inactive |
| MSLN (mesothelin) | 1 | -0.506 | 63 | 44.3 | inactive |
| MSLN (mesothelin) | 2 | 0.263 | 50.8 | 61 | inactive |
| MSLN (mesothelin) | 3 | 0.414 | 39.6 | 52.8 | inactive |
| MSLN (mesothelin) | 4 | -0.261 | 21.1 | 17.6 | inactive |
| LTBP4 (latent transforming growth factor beta binding protein 4) | 1 | 0.214 | 87.5 | 101 | inactive |
| LTBP4 (latent transforming growth factor beta binding protein 4) | 2 | -0.13 | 106 | 97 | inactive |
| LTBP4 (latent transforming growth factor beta binding protein 4) | 3 | -0.133 | 91.6 | 83.6 | inactive |
| LTBP4 (latent transforming growth factor beta binding protein 4) | 4 | -0.382 | 68.9 | 52.9 | inactive |
| METAP2 (methionyl aminopeptidase 2) | 1 | -0.152 | 98.1 | 88.3 | inactive |
| METAP2 (methionyl aminopeptidase 2) | 2 | -0.0805 | 54.4 | 51.4 | inactive |
| METAP2 (methionyl aminopeptidase 2) | 3 | -0.254 | 105 | 88.5 | inactive |
| METAP2 (methionyl aminopeptidase 2) | 4 | -0.614 | 99.8 | 65.2 | inactive |
| DDB2 (damage specific DNA binding protein 2) | 1 | -0.0227 | 104 | 102 | inactive |
| DDB2 (damage specific DNA binding protein 2) | 2 | -0.0818 | 98.8 | 93.4 | inactive |
| DDB2 (damage specific DNA binding protein 2) | 3 | -0.132 | 85.8 | 78.3 | inactive |
| DDB2 (damage specific DNA binding protein 2) | 4 | 0.00832 | 107 | 108 | inactive |

3 entries from above, limited to “viability with camptothecin (% of control)”.
METAP2 (methionyl aminopeptidase 2) #4: 99.8
DDB2 (damage specific DNA binding protein 2) #1: 104
DDB2 (damage specific DNA binding protein 2) #2: 98.8

Additional entries:
| gene symbol | siRNA no. | log2 vehicle/camptothecin viability | viability with camptothecin (% of control) | viability without drug (% of control) | call |
| --- | --- | --- | --- | --- | --- |
| CCDC28A (coiled-coil domain containing 28A) | 1 | -0.155 | 85.3 | 76.6 | inactive |
| CCDC28A (coiled-coil domain containing 28A) | 2 | -0.499 | 50.3 | 35.6 | inactive |
| CCDC28A (coiled-coil domain containing 28A) | 3 | -0.152 | 69.5 | 62.5 | inactive |
| CCDC28A (coiled-coil domain containing 28A) | 4 | 0.439 | 48.7 | 66 | inactive |
| MRTO4 (MRT4 homolog, ribosome maturation factor) | 1 | 0.0445 | 61.8 | 63.8 | inactive |
| MRTO4 (MRT4 homolog, ribosome maturation factor) | 2 | -0.175 | 80.8 | 71.6 | inactive |
| MRTO4 (MRT4 homolog, ribosome maturation factor) | 3 | -0.329 | 59.8 | 47.6 | inactive |
| MRTO4 (MRT4 homolog, ribosome maturation factor) | 4 | 0.281 | 56.3 | 68.4 | inactive |
| PRDX5 (peroxiredoxin 5) | 1 | -0.0278 | 78.1 | 76.6 | inactive |
| PRDX5 (peroxiredoxin 5) | 2 | -1.51 | 8.8 | 3.09 | inactive |
| PRDX5 (peroxiredoxin 5) | 3 | 0.578 | 40.7 | 60.8 | inactive |
| PRDX5 (peroxiredoxin 5) | 4 | -0.0609 | 62.6 | 60.1 | inactive |
| ACTN4 (actinin alpha 4) | 1 | 0.148 | 56.6 | 62.7 | inactive |
| ACTN4 (actinin alpha 4) | 2 | -0.182 | 15 | 13.2 | inactive |
| ACTN4 (actinin alpha 4) | 3 | 0.345 | 47 | 59.7 | inactive |
| SRI (sorcin) | 1 | -0.344 | 84.3 | 66.4 | inactive |
| SRI (sorcin) | 2 | -0.0886 | 108 | 101 | inactive |
| SRI (sorcin) | 3 | 0.395 | 49.4 | 65 | inactive |
| SRI (sorcin) | 4 | -0.28 | 92.4 | 76.1 | inactive |
| OR1G1 (olfactory receptor family 1 subfamily G member 1) | 1 | 0.149 | 91.9 | 102 | inactive |
| OR1G1 (olfactory receptor family 1 subfamily G member 1) | 2 | -0.0755 | 48 | 45.5 | inactive |
| OR1G1 (olfactory receptor family 1 subfamily G member 1) | 3 | 0.0743 | 73.2 | 77.1 | inactive |
| OR1G1 (olfactory receptor family 1 subfamily G member 1) | 4 | 0.337 | 62 | 78.3 | inactive |
| RNF7 (ring finger protein 7) | 1 | 0.267 | 68 | 81.8 | inactive |
| RNF7 (ring finger protein 7) | 2 | 0.0117 | 101 | 102 | inactive |
| RNF7 (ring finger protein 7) | 3 | -0.0175 | 85.5 | 84.5 | inactive |
| RNF7 (ring finger protein 7) | 4 | -0.235 | 111 | 94.6 | inactive |
